Source: paper PMC12370185
The list shows a part of the results. For part of these data: At the low end of the ranking the order means little.

How the values were obtained:
Conditions in all cases: 10 mM Tris-Cl pH 7.5, 50 mM NaCl, 1 mM DTT, 0.25 mg/ml BSA, 2 mM MgCl2, 0.025% Nonidet P-40, 5% glycerol; 28 nM nucleosome library; 10 min on ice then 30 min …; high values mean tight binding; double strand, one strand shown
KLF4 + histone octamer = assay: EMSA with sequencing
SOX2 + histone octamer [1] = assay: EMSA with sequencing
OCT4 + histone octamer = assay: Pioneer-seq (competitive nucleosome EMSA with sequencing)
[2] = test system: c-MYC + MAX + histone octamer; assay: as above
[3] = test system: c-MYC + MAX + histone octamer; assay: EMSA with sequencing
SOX2 + histone octamer [4] = assay: Pioneer-seq (competitive nucleosome EMSA with sequencing)

Sequence | binding signal (log2 relative supershift) (KLF4 + histone octamer) | binding signal (log2 relative supershift) (SOX2 + histone octamer [1]) | binding signal (log2 relative supershift) (OCT4 + histone octamer) | binding signal (log2 relative supershift) [2] | binding signal (log2 relative supershift) [3] | binding signal (log2 relative supershift) (SOX2 + histone octamer [4])
GATGGACCCTATACGCGGCTACTCACATTTGACTAATTGCCCACCCACTCCAGCATTAGAGATGTTATTAGTATGCAGATTTGTGGTAATCCCTGGATGGGTGAGGCTTCCTAGATCTCCCTTTCTCACAGGCTCCCCCTCCTGCTATCTGCCTACTCTAACAGAAATGTTTTCTATCTTAACTGTGTCAATGTCAGTATCTTGATTGTGTGCCAGTCGGATAGTGTTCC | 1.83 | 0.806 | -0.362 | -0.111 |  | 
GATGGACCCTATACGCGGCGCGGAAGCCACCCACCAAGCTCACACAAGGGATGTGGCTGAACATGTGCTGGGCAAACACTAGAGGGTGAGAGTGGGGCTGACTTAGTAAAAGGGACATGTGGCTTGATTTTTAGTGAAATACCATAGTGTCACAACTAGTGCTGTCTCTGCCCCACGCCAAAAGGAAAAGTCAAGTGAAATAGGCTGGGTTGCCAGTCGGATAGTGTTCC | 2.44 |  | -1.04 |  | 0.204 | -0.121
GATGGACCCTATACGCGGCCAGGGATGAGTAATTCCACTTGACAGACAGGGAAACCTGAGGACGGTGGTTCTCAGACTTTAGGGGCGTTGCTTCCAGTAAGCAGATGTCTGAGCCACGTGGCAAGGAGGATGAGTCAGCAGGTTTGGGGTGGGGCTGGGTATCTGATGTTTACTCAGACCTCCTCATCCTCATCCTGCAGGTGGGCAGATTGCCAGTCGGATAGTGTTCC | 2.12 |  | -0.587 |  | 0.131 | -1.13
GATGGACCCTATACGCGGCTCTATAGAAGGGTGCGCCCTTACAGATGGAACAATGGTGAGCACACACTTGGACAAGGGAGGGGAAGGAGTTCTTATCCCTGATGCACATGGACCCTGCTGCTGTGCCATTCCCCCATTGGCTAGGGTTAGACTGCACAGGCTAAAGTAATTCCAATTGGCTACTTTAAAGAGAATGACAGGGTGAGTGCTTGCCAGTCGGATAGTGTTCC | 2.5 | 1.34 | -0.387 | -0.36 |  | 
GATGGACCCTATACGCGGCTAGCCCAACTATTTAACTAAAGGAACTTTGTAATATCTGGACTCAGAAACTGAGATAAATGCCATAACCAATCATCCAACCGGAGACTGAGGTACATGTAATCAGGTTCAAAAGTGACTCTAAAGGTACTTGCCTGGCAGCATGACAAAGTGGCATATTATTACACTCCTTAAACACTTTGTGAGAAGCAGTGCCAGTCGGATAGTGTTCC | 1.88 | 0.614 | -0.256 | -0.0312 |  | 
GATGGACCCTATACGCGGCAAAATATATATATATATAGTGGGACTGGGGAATCACAGAACCTTGCCTCAGCCCTGCCACCTTGCTGCCCATGAGGCTTTCAGGGAGGCTGTGGGAAGGGAGGGGGACAATGTCAAAGGCACATGGAAGCTCCCCTTTTATTATTAGCTGGGTGTGTGCCCAGCTCCTCCCAAACAGAACAGGGCTGGGACTGCCAGTCGGATAGTGTTCC | 1.8 | 0.503 | -0.413 | -0.126 |  | 
GATGGACCCTATACGCGGCCATGTTGAATGGGTGAACTGTATGGTATGTCATTATATTTCAAGAAGCCATTAAAAAAAAACAACAGAAAGCCTTGCTGCAACATGCCTGCACTTGCTCCTGCCACATTCAGGTGGTTCTGAGCTGAAGCCACAGACAGGTCTCCCTGGGTTAGAGGTGTTCCCTGCTGGTCAGATCATTTATGATTGGAATGCCAGTCGGATAGTGTTCC | 0.61 | 0.903 | -0.361 | -0.169 |  | 
GATGGACCCTATACGCGGCGCACTGTAGCTGTCGACTTTGTTTCAGACACCAGCCTTCCCCCACACTTCTGCATGACCCAGGTCACTATGAGACACCCAGACGTGTTGATGACAGTGACATTTGTCCTAGAGTGACCACACTGATCCTTTCTAGCACTGTGAAGAGTGTGCAGCTTCCTCTGAACCAAGGTTTCCAAAAGGTTTTGATATTGCCAGTCGGATAGTGTTCC | 0.538 | 0.777 | -0.61 | -0.0793 |  | 
GATGGACCCTATACGCGGCGAGGCACAGAGGCCTGAAGGGGACAGAGTGGGCAGGCCAGGTAGGCCGGGAAAGGTTTGAGGTGGGGACAATAGCCCTGCCCCTCCCCCACTCACGCCTTGAGCCCCTCCTTCTTCAGGATCTGCAAGCCGCAGTCCCACGTGTTCCGGTATTTGTGCGCCTCCAGGCCCTATGGGGGACATCAGCAGGCATGCCAGTCGGATAGTGTTCC | 1.5 |  | -0.26 |  | 0.605 | -0.455
GATGGACCCTATACGCGGCGCTGCCACATCCATTCATTTATGTGATCCAAAGAGGTGGAGGCAGAGGCAGTCACAAGCCTGGACTTGAGTCAGGCAGGCCTGGGCTGGAACTTGGATTAGCAGACCACAGCCAAGCACTTCACTCATCTCTAAATCTGGAATTGTAGAAGTCTTTCTCCCATTTTATATGTGCTTGCAGGATTCCTTAAGTGCCAGTCGGATAGTGTTCC | 1.4 | 1.07 | -0.139 | -0.0925 |  | 
GATGGACCCTATACGCGGCAGAATTTCAGGACAATGACTGCAGAACATTAAACTAAGCATGGGTCCTTCTGAGTACTGGGCCCTGTGTGACTGCAGAGGCCTCACACTCATGAAGCTGGCCCTGCATTCATGTGGAAATGTGTAAAAAATAGATATTGAAGTCGGGAGAGCTGGTGAAAGGTCATTTTTGGAGATGTAGGCTTGGGAATTTGCCAGTCGGATAGTGTTCC | 0.348 | 0.691 | -0.562 | -0.224 |  | 
GATGGACCCTATACGCGGCGGGAGCTCCACTGAGGAGGGTGTGAGACATCACCAGCTGTGCCTGCATCCCCATCACAATCTCATAGAGAGCGGGAACAGCTTCCCAGGGAACAGCTCCGCACCCTGGGCATGAACACGAGTGCGTGTGTGTGACTATGAGAGTGTGTGAGGGTGTATTTGGGCATGAGTGTGCTGTGTGCATGTGTATATTGCCAGTCGGATAGTGTTCC | 2.15 |  | -0.0756 |  | 0.164 | -0.0672
GATGGACCCTATACGCGGCATAAGAAAGACAGGACAGCCCTCCAAACCAGGACGTCATGGAGAGGTCAGCCCACCCAAAGAAGATGCAGCACATGCAGGGTGTGGAGAGGGAAGTTCACGGGTGACGGGAGACACTGCCCTACGCCGCTAAATCCCTGCAGCCTCCTCCCCCTCATCCCTGTAAAAGTGAGTCAGAAGAGCTCACTTGTCTGCCAGTCGGATAGTGTTCC | 1.66 | 0.436 | -0.471 | -0.57 |  | 
GATGGACCCTATACGCGGCATTGGGAATCTGGGAGCACTCTTCTTGGTGCCTTTGGCTCAGGATCACTCACAAGGCTGCAGTCAAGGTATCCCCTGGGGCAGCCATCGTCTCAAGCCTCCGCTGGAAGAGGGTGCATGTCCAAGCTTGCCCATGTGGCTGTGGGCAGGCCTCAAGTCTTCACTGGCTGTTGGCTGAAGGCATCAATTTCTTGCCAGTCGGATAGTGTTCC | 1.75 |  | -0.638 |  | 0.69 | -0.722
GATGGACCCTATACGCGGCAAGAATAGATGTTCTGGTAAAGGTCCCTGAGAGACACTAAGGTTGAATCTTGCTTGGGAGACATCCTGTGTATGTGCAGCAGATGGCAGTCTGCATTGGAATGGATCACAAGTCCAGTTTGTGCCACTTTTGTTCCGCTGTATGGTATGGTAAATTACAACCAGGGGGGCATAACCAGTTACAGCACTGCCTGCCAGTCGGATAGTGTTCC | 1.32 | 0.701 | -0.0738 | -0.0284 |  | 
GATGGACCCTATACGCGGCCCCTCTTCTTCCAGTTCTTTGTTTCTCTAGTTTCTATAGTTACCCGTGCTGTAAACAACCCTTCCTGCCCTGACTGTTCCCTGACATGTCCTGACAAGTCTAGACAGGCCTTGCACCATAATGGATAGCCTTCCCCTTCCTGCCTAGATAGCTGTATTCAATTTCAAACATTAGCCAATCAGGTCAGTTTATGCCAGTCGGATAGTGTTCC | 0.165 | 1.35 | -0.375 | -0.39 |  | 
GATGGACCCTATACGCGGCCCTACCTGTTTCTTGCAGTCGTGTATTCTGGGACTTTCCTCATGGTGGGACCTTTCACACAACCCTCCTCTTCAAGCTGGGCAAGCCTGTTCTTGTCTCTCTTGTGCTTCAGGAGGAAGTACTGGAGAAGATGTAAGTTTTTAAGCCTTCATTTGGGGGGATGTGGAATGAAGGCAAAGGAGAGATGGGCATGCCAGTCGGATAGTGTTCC | 3.1 | 1.3 | -0.349 | -0.182 |  | 
GATGGACCCTATACGCGGCCATTCCCCAAGCCCTCCCAGTTATCCATGATCAGGAGGCTGTCTCTTTGCCTGCCTTCTCCAACCCTGCACCCAGCCTCTTTGCCTCTGCAGGACTTCCCCAGAAAGTTGAATCTTCTTCCCTTTATAGAGCGGAGCAGTTCAGCTCAGACTTGTAGGCACACCTGTGCAGCACAGACCAACGTCTCTCCTTGCCAGTCGGATAGTGTTCC | 2.22 |  | -0.401 |  | 0.578 | -0.273
GATGGACCCTATACGCGGCCTAATGTGCCTTTGTTAGCAATATCACTTATTTTCTTCAACTGATGTTGAACACATTGTGCTCTCCCAAGCAGGTCTTAAGTCATGCCACGTCAGGGCTGGACCGCTCTTCTTATTCTGCACATGGGCCCTCACTTAGGCAGGGGTGCGGTCAACATTGAAAGAGGTTCCATTCTAGGAATGTAGTGGTTATGCCAGTCGGATAGTGTTCC | 0.858 | 1.73 | -0.436 | -0.317 |  | 
GATGGACCCTATACGCGGCTCTTTAAAGAAAAAAAAAATGGCTATTGTTTTCCTGAGACCTCCCACATGTTGGGAAATAACTTACAGTGAGGCAGTTTCCTTGTGGTGTAGTCTGAACTCTTGAATAGCTGGCTGTGTATGGATTGCGGCAGTCACCATAACAATGGGCTCATCTTAAAACGTTCATTTAGATTCATTATTGGAACTGTGTGCCAGTCGGATAGTGTTCC | 1.5 | 2.05 | -0.0676 | -0.21 |  | 
GATGGACCCTATACGCGGCTGTGATGTCAGTTTGTATGTACGAGAACAGTGGGTGTGGGCAGTAAAGGGGTGGGATGAAATGAGCATCTGTGTGTGTGTTTGCGCATGTGCATCATGTGTACACACATATGCACACACATGCCTAGTATCTGCTCTCTCCTTATTCTAGATTACCCCTACCCCCTTTTATTAAAGACTCAAGAGGATCTTTGCCAGTCGGATAGTGTTCC | 1.87 | 0.458 | -0.305 | -0.136 |  | 

Exported in CSV form: part of the list above
Sequence,binding signal (log2 relative supershift) (KLF4 + histone octamer),binding signal (log2 relative supershift) (SOX2 + histone octamer [1]),binding signal (log2 relative supershift) (OCT4 + histone octamer),binding signal (log2 relative supershift) [2],binding signal (log2 relative supershift) [3],binding signal (log2 relative supershift) (SOX2 + histone octamer [4])
GATGGACCCTATACGCGGCGGGAGCTCCACTGAGGAGGGTGTGAGACATCACCAGCTGTGCCTGCATCCCCATCACAATCTCATAGAGAGCGGGAACAGCTTCCCAGGGAACAGCTCCGCACCCTGGGCATGAACACGAGTGCGTGTGTGTGACTATGAGAGTGTGTGAGGGTGTATTTGGGCATGAGTGTGCTGTGTGCATGTGTATATTGCCAGTCGGATAGTGTTCC,2.15,,-0.0756,,0.164,-0.0672
GATGGACCCTATACGCGGCATAAGAAAGACAGGACAGCCCTCCAAACCAGGACGTCATGGAGAGGTCAGCCCACCCAAAGAAGATGCAGCACATGCAGGGTGTGGAGAGGGAAGTTCACGGGTGACGGGAGACACTGCCCTACGCCGCTAAATCCCTGCAGCCTCCTCCCCCTCATCCCTGTAAAAGTGAGTCAGAAGAGCTCACTTGTCTGCCAGTCGGATAGTGTTCC,1.66,0.436,-0.471,-0.57,,
